Results reported in paper PMC8565065.
Results are given in words; binding and its absence hold for the method and conditions named. In cells and extracts the contact can be indirect. Some results given as binding are weak or reduced against the parent protein; the word gives no strength.

The chains behind the UniProt entries cited, without tags or fusion partners. Residues count along the entry.
UniProt P02649, residues 19-317: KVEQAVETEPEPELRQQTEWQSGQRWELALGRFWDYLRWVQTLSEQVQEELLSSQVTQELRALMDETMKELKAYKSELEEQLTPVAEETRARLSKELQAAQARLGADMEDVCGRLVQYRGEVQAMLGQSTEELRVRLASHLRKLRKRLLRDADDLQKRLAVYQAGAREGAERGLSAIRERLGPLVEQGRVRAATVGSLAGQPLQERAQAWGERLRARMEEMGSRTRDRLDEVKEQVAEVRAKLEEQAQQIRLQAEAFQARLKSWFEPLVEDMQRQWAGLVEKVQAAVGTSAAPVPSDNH
UniProt P78509, residues 26-3460: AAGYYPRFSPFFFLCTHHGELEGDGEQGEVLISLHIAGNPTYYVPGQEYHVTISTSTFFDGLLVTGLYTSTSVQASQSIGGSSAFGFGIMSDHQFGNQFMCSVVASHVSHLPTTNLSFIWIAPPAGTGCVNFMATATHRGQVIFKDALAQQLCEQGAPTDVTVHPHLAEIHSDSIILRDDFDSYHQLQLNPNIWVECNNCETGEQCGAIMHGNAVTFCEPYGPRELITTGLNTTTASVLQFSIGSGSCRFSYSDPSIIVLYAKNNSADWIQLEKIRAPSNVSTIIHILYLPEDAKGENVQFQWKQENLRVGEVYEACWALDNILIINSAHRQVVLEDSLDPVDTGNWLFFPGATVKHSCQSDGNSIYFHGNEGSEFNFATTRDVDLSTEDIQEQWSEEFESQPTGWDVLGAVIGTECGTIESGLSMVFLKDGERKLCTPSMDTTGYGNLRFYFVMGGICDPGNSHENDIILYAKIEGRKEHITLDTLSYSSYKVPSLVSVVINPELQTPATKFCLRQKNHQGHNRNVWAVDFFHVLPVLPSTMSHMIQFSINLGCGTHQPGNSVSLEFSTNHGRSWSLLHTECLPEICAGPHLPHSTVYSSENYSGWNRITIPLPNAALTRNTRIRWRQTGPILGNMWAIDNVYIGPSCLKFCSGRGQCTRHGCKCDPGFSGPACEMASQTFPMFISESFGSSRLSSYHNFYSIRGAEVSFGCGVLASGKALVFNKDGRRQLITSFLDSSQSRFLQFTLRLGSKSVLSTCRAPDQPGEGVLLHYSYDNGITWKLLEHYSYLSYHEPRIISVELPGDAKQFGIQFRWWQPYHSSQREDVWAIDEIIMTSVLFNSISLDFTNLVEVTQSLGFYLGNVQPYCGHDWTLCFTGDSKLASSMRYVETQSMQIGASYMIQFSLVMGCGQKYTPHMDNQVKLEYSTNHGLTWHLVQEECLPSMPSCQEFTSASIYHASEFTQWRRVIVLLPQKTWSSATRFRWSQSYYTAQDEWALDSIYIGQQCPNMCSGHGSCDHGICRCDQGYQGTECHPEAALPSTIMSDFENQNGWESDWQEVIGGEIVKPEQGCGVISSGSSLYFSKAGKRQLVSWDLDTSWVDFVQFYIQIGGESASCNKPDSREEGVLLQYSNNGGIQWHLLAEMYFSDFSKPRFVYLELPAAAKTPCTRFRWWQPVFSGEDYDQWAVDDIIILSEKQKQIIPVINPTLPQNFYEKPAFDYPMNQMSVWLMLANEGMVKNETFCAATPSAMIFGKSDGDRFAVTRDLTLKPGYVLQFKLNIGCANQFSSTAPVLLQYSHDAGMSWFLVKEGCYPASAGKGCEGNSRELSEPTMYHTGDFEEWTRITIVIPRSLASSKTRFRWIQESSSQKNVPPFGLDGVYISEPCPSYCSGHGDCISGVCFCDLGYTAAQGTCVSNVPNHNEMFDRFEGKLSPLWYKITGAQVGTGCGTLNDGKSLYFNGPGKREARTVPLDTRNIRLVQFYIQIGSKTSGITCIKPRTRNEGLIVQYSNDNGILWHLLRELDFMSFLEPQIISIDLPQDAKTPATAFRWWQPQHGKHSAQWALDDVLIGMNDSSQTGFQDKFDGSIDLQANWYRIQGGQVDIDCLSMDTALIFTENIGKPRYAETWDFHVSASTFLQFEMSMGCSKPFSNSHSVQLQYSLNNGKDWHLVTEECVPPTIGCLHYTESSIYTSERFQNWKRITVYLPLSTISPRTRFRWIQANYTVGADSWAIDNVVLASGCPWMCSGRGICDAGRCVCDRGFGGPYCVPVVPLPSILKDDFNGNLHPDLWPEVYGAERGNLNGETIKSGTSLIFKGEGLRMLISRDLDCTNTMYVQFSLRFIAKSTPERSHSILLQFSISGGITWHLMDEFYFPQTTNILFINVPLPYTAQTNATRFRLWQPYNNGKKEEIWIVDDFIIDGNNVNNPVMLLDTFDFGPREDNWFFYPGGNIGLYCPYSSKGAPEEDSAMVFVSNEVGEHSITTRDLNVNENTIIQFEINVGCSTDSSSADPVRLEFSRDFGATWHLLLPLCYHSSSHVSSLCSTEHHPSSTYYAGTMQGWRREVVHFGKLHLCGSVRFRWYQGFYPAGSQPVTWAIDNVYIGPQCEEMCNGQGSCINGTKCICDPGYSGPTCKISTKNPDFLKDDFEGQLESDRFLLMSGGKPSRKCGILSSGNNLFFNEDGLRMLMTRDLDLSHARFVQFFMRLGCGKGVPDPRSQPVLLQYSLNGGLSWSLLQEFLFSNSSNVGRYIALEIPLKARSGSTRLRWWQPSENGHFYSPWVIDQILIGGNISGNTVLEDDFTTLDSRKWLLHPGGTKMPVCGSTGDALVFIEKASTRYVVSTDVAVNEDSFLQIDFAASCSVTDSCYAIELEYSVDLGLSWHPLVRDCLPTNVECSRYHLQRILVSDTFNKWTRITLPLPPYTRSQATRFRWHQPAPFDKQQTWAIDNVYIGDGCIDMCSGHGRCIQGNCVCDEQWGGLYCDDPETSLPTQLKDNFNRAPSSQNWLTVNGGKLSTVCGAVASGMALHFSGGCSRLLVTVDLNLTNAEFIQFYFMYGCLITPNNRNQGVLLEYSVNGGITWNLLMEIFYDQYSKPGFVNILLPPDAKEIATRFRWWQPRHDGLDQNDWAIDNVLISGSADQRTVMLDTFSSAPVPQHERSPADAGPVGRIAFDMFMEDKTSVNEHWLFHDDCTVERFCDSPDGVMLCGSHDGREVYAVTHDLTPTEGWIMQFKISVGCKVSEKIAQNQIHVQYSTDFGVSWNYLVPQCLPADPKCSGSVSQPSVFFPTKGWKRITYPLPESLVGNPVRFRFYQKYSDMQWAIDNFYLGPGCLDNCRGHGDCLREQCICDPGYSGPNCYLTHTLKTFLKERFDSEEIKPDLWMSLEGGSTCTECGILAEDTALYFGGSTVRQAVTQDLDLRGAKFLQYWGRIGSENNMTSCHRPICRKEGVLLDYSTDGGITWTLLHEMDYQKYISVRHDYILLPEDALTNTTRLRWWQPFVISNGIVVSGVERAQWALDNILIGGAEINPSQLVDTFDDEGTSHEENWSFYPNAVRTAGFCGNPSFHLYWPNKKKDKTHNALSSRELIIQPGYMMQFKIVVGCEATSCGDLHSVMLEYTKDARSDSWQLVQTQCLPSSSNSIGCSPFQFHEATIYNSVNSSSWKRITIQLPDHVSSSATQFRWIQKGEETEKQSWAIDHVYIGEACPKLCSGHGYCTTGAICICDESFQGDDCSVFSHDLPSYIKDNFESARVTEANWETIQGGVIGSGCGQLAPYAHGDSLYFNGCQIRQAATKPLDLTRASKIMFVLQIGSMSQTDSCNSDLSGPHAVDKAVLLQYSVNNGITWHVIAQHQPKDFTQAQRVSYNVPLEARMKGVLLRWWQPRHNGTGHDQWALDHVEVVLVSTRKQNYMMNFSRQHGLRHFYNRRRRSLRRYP

Target: T1, low-density lipoprotein receptor-related protein 3 (LRP3), endogenous in human frontal cortex (human (endogenous in frontal cortex)) (UniProt O75074)
T1 sequence: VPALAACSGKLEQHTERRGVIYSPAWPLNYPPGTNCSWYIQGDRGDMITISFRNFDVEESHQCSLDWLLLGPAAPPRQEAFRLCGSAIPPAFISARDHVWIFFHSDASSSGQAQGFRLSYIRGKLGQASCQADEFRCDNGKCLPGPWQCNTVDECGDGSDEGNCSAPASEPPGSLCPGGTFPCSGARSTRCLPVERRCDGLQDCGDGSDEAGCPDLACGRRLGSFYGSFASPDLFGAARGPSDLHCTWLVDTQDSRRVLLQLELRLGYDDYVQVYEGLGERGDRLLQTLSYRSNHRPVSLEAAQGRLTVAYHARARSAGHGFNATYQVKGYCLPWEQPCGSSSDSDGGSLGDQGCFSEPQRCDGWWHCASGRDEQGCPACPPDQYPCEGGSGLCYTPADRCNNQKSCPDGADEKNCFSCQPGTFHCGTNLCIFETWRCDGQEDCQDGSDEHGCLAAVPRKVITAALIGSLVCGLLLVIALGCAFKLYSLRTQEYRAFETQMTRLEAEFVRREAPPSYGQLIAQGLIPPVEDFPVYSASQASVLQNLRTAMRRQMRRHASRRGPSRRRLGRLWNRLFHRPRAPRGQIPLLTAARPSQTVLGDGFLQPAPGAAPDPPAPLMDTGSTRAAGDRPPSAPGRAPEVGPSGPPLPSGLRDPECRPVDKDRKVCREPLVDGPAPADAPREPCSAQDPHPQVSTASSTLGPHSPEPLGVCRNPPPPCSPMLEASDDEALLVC
Experiment: co-IP; human frontal cortex extracts (100 μL; MA and AD-related pathology cases) incubated 2.5 h at room temperature with magnetic beads coupled to an anti-C-terminal LRP3 antibody; mouse IgG as negative control; input, bound and unbound fractions blotted

Row | binding | Substance
1 | binds | apolipoprotein E (apoE), endogenous in human frontal cortex (from UniProt P02649 19-317) (ligand)
2 | no binding | reelin, endogenous in human frontal cortex (from UniProt P78509 26-3460) (ligand)
